The supplement of paper PMC12823440, “Inhibitors supercharge kinase turnover through native proteolytic circuits” (Nature, 2025)
The other results are listed elsewhere or left out. The calls rarely recur for the same compound in another form.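 In K562 cells expressing nanoluciferase-fused kinases, luminescence was recorded at 4 h intervals between 2 and 18 h, normalized as percent of control with DMSO at 100% and a positive control at 0%. A significant (2 sigma) signal drop marks a time point as decreased. The authors' rule for a hit is not shown and takes in more than the number of time points.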

The chains behind the UniProt entries cited, without tags or fusion partners. Where a name states a change or a piece, a line headed by the entry shows the natural chain unless it says otherwise.
UniProt P42680: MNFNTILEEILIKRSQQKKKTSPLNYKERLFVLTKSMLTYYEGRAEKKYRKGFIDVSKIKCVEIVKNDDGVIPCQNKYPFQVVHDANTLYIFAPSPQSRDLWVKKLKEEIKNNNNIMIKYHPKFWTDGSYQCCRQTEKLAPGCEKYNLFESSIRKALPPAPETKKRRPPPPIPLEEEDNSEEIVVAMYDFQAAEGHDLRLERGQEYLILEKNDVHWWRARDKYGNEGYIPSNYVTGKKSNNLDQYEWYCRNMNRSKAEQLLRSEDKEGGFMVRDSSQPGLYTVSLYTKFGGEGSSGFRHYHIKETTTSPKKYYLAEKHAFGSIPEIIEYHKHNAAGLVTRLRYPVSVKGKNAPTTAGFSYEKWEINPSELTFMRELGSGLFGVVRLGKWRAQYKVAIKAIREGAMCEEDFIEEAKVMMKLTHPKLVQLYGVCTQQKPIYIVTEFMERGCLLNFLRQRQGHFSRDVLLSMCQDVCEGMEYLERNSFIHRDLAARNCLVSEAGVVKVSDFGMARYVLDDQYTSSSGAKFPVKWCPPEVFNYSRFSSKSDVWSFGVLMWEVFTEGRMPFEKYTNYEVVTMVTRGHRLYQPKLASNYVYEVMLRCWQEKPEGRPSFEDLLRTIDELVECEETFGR
UniProt P29597: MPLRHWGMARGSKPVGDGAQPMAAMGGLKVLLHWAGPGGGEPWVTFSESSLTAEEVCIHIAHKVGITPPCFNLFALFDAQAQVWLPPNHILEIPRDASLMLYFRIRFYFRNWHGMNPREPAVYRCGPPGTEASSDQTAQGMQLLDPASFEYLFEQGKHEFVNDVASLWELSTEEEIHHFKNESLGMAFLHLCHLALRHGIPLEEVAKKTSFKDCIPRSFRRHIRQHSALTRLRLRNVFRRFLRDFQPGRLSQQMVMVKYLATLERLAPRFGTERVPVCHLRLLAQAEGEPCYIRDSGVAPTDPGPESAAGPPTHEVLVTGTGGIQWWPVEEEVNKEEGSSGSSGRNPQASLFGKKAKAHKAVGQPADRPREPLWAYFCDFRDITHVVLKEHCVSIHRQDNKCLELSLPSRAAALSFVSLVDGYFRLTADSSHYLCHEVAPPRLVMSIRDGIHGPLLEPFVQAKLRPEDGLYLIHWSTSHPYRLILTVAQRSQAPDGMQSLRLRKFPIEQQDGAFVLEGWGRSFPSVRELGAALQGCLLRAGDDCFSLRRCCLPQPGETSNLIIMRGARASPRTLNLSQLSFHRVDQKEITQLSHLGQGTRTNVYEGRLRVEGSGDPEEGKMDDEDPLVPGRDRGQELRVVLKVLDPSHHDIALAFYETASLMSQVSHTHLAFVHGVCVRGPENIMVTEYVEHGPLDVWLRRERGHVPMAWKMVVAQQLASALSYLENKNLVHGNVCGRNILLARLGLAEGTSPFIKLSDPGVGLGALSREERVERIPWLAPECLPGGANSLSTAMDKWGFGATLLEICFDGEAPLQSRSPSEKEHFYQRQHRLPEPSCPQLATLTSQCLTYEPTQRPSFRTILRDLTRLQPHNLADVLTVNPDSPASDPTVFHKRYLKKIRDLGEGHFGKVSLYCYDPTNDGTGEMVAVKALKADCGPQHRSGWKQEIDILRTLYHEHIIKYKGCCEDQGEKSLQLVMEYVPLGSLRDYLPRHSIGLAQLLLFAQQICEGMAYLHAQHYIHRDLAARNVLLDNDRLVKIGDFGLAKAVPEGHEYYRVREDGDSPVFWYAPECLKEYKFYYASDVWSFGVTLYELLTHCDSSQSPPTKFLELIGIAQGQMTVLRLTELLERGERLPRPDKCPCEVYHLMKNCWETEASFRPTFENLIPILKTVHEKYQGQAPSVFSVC
UniProt Q6PHR2: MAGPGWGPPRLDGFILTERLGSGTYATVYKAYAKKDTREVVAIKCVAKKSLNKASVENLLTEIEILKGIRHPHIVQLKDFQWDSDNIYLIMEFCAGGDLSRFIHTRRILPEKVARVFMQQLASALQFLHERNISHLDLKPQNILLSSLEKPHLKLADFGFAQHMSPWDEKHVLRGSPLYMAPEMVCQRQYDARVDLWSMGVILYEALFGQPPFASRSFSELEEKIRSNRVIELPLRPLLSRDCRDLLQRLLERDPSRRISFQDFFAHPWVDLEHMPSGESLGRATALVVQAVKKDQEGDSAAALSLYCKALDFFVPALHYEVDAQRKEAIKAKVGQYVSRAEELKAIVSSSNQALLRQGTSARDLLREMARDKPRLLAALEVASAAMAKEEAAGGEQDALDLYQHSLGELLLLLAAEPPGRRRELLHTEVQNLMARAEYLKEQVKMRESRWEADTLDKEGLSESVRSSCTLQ
UniProt P43403: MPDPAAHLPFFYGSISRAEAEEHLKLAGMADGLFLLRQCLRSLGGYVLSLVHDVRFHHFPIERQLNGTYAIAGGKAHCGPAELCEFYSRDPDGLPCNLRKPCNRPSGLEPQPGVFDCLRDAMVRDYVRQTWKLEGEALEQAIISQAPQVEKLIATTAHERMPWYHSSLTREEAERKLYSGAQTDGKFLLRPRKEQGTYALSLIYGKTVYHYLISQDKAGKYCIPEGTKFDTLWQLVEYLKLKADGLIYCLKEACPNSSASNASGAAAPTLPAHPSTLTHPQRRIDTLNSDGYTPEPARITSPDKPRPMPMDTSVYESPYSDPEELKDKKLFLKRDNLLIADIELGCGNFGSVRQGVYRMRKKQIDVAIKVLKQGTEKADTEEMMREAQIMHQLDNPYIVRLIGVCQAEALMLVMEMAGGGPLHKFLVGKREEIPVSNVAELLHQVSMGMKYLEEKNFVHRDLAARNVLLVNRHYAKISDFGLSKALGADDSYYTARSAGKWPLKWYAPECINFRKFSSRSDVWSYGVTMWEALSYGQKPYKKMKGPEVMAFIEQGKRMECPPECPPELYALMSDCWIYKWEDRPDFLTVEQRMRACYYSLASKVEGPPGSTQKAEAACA
UniProt P00519, whole entry: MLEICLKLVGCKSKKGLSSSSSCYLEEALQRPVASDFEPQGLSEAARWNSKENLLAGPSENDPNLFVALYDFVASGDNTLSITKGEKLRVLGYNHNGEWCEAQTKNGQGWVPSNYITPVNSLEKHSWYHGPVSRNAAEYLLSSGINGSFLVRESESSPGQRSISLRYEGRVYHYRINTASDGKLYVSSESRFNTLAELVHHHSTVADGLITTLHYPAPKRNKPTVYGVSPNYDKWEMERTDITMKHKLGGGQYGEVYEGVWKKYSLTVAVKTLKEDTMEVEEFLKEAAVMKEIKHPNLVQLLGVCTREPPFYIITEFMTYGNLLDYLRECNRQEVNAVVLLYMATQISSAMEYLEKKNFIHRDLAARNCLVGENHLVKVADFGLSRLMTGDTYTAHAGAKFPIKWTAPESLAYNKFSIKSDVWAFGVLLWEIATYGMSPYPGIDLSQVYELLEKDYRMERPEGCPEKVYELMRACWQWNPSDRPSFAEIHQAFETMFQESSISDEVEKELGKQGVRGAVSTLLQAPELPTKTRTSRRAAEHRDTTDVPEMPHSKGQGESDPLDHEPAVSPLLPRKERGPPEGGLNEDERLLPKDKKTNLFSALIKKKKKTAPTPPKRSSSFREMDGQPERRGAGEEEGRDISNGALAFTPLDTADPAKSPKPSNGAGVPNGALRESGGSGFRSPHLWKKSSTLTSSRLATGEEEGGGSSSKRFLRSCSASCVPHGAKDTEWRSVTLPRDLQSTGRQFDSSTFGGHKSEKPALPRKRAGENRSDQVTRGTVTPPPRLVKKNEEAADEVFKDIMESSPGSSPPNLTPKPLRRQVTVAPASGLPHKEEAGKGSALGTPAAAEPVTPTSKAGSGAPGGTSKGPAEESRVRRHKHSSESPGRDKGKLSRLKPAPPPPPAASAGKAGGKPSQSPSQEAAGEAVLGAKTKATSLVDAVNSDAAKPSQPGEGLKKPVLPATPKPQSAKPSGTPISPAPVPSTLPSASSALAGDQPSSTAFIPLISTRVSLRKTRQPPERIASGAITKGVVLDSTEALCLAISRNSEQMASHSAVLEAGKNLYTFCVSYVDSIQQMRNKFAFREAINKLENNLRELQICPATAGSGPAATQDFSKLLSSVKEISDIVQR
UniProt P31749: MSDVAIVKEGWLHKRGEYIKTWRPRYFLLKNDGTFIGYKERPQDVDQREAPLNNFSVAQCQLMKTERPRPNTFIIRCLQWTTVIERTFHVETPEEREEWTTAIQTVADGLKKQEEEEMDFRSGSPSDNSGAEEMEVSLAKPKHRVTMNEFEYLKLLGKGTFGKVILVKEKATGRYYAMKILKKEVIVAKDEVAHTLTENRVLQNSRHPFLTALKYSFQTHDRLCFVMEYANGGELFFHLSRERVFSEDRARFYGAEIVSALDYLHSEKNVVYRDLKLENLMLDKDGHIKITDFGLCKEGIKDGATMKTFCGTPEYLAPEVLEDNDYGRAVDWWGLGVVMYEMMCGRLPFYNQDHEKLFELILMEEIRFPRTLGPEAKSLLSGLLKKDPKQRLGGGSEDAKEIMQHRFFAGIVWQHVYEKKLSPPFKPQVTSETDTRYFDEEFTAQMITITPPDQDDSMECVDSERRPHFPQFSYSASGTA
UniProt P10398: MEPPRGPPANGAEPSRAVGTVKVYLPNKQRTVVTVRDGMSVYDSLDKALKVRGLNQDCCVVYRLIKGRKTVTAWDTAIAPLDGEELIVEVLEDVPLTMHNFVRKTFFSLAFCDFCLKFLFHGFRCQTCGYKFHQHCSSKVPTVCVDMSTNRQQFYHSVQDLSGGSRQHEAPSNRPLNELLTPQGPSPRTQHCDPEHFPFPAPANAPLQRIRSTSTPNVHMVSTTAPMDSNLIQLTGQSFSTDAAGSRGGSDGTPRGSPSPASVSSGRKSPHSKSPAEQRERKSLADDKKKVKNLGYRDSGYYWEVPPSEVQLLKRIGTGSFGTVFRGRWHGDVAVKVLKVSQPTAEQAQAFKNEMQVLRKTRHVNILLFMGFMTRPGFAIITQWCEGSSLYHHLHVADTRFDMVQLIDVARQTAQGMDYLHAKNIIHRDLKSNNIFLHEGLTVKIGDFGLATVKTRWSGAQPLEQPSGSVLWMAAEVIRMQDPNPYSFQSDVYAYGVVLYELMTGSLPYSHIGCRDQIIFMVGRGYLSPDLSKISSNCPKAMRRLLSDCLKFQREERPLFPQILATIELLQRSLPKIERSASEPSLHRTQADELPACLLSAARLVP
UniProt Q96GD4, whole entry: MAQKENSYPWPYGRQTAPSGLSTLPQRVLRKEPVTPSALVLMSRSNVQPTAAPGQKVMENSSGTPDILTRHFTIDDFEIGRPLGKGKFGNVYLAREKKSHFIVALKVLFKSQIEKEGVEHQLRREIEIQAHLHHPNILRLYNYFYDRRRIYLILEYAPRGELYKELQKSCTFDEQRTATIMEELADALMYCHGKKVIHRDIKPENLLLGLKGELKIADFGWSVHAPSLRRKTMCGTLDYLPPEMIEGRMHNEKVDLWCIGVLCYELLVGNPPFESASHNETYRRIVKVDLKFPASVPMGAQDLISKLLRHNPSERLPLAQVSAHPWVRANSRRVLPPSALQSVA
UniProt Q9UQB9: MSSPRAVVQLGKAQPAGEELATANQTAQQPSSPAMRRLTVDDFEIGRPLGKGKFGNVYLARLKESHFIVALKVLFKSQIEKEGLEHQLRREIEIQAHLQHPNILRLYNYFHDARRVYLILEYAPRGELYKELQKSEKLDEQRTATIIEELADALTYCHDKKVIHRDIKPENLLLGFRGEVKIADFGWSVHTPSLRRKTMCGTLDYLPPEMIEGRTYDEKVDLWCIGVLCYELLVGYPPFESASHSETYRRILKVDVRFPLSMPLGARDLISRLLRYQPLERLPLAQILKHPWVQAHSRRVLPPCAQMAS
UniProt P51813: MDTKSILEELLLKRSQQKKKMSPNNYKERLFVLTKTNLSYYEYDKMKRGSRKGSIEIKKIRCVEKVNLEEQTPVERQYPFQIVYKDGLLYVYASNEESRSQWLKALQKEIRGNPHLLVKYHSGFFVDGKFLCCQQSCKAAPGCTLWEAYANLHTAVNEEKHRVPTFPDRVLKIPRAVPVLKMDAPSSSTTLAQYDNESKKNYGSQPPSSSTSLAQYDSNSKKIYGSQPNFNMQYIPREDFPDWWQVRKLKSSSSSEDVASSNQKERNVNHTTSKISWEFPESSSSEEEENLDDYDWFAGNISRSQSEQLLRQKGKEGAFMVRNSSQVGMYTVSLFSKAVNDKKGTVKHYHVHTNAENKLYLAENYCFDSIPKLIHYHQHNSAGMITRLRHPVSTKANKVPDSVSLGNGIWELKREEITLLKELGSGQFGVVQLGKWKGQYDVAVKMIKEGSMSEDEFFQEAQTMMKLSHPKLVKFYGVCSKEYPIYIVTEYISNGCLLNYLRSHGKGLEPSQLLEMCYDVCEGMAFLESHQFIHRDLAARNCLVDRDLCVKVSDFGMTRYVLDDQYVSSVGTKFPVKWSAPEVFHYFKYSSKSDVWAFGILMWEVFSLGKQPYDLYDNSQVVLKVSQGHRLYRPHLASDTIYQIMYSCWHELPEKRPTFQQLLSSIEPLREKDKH

Legend:
Settings in all cases: K562; 2-18 h
STK38 = STK38 (UniProt Q15208); experiment: kinase-Nluc reporter destabilization hit call (1 = scored as downregulated) (binary); higher = compound decreases kinase abundance
SYK = SYK (UniProt P43405); experiment: as above
TEC = TEC (UniProt P42680); experiment: as above
TYK2 = TYK2 (UniProt P29597); experiment: as above
ULK3 = ULK3 (UniProt Q6PHR2); experiment: as above
YES1 = YES1 (UniProt P07947); experiment: as above
ZAK = ZAK (UniProt Q9NYL2); experiment: as above
ZAP70 = ZAP70 (UniProt P43403); experiment: as above
ABL1 = ABL1 (UniProt P00519); experiment: number of time points (of 5) at which kinase-Nluc abundance scored as decreased, DMSO-normalised (count); higher = more persistent destabilization
AKT1 = AKT1 (UniProt P31749); experiment: as above
ALK = ALK (UniProt Q9UM73); experiment: as above
ARAF = ARAF (UniProt P10398); experiment: as above
AURKA = AURKA (UniProt O14965); experiment: as above
AURKB = AURKB (UniProt Q96GD4); experiment: as above
AURKC = AURKC (UniProt Q9UQB9); experiment: as above
BLK = BLK (UniProt P51451); experiment: as above
BMX = BMX (UniProt P51813); experiment: as above
BRAF = BRAF (UniProt P15056); experiment: as above
BRAF_V600E = experiment: as above
BTK = BTK (UniProt Q06187); experiment: as above

Cc1cccc(/C=N/Nc2cc(N3CCOCC3)n3nc(-c4ccncc4)cc3n2)c1 (10 µM)
1: number of time points (ABL1)
2: number of time points (BMX)
0: number of time points (AKT1) | number of time points (ALK) | number of time points (ARAF) | number of time points (AURKA) | number of time points (AURKB) | number of time points (AURKC) | number of time points (BLK) | number of time points (BRAF) | number of time points (BRAF_V600E) | number of time points (BTK)
inactive: kinase-Nluc reporter destabilization hit call (STK38) 0 | kinase-Nluc reporter destabilization hit call (SYK) 0 | kinase-Nluc reporter destabilization hit call (TEC) 0 | kinase-Nluc reporter destabilization hit call (TYK2) 0 | kinase-Nluc reporter destabilization hit call (ULK3) 0 | kinase-Nluc reporter destabilization hit call (YES1) 0 | kinase-Nluc reporter destabilization hit call (ZAK) 0 | kinase-Nluc reporter destabilization hit call (ZAP70) 0

CC(O)(C#Cc1ccc2c(c1)N(c1nc(N)ncc1Cl)CC2)c1nccs1 (stereo not given) (2.5 µM)
0: number of time points (ABL1) | number of time points (AKT1) | number of time points (ALK) | number of time points (ARAF) | number of time points (AURKA) | number of time points (AURKB) | number of time points (AURKC) | number of time points (BLK) | number of time points (BMX) | number of time points (BRAF) | number of time points (BRAF_V600E) | number of time points (BTK)
inactive: kinase-Nluc reporter destabilization hit call (STK38) 0 | kinase-Nluc reporter destabilization hit call (SYK) 0 | kinase-Nluc reporter destabilization hit call (TEC) 0 | kinase-Nluc reporter destabilization hit call (TYK2) 0 | kinase-Nluc reporter destabilization hit call (ULK3) 0 | kinase-Nluc reporter destabilization hit call (YES1) 0 | kinase-Nluc reporter destabilization hit call (ZAK) 0 | kinase-Nluc reporter destabilization hit call (ZAP70) 0

NS(=O)(=O)c1ccc(Nc2nc(-c3cccc(-c4ccccc4)c3)c3[nH]cnc3n2)cc1 (10 µM)
0: number of time points (ABL1) | number of time points (AKT1) | number of time points (ALK) | number of time points (ARAF) | number of time points (AURKA) | number of time points (AURKB) | number of time points (AURKC) | number of time points (BLK) | number of time points (BMX) | number of time points (BRAF) | number of time points (BRAF_V600E) | number of time points (BTK)
inactive: kinase-Nluc reporter destabilization hit call (STK38) 0 | kinase-Nluc reporter destabilization hit call (SYK) 0 | kinase-Nluc reporter destabilization hit call (TEC) 0 | kinase-Nluc reporter destabilization hit call (TYK2) 0 | kinase-Nluc reporter destabilization hit call (ULK3) 0 | kinase-Nluc reporter destabilization hit call (YES1) 0 | kinase-Nluc reporter destabilization hit call (ZAK) 0 | kinase-Nluc reporter destabilization hit call (ZAP70) 0

COc1cc(-c2oc3cc(O)cc(O)c3c(=O)c2O)ccc1O [Isorhamnetin] (10 µM)
inactive: kinase-Nluc reporter destabilization hit call (STK38) 0 | kinase-Nluc reporter destabilization hit call (SYK) 0 | kinase-Nluc reporter destabilization hit call (TEC) 0 | kinase-Nluc reporter destabilization hit call (TYK2) 0 | kinase-Nluc reporter destabilization hit call (ULK3) 0 | kinase-Nluc reporter destabilization hit call (YES1) 0 | kinase-Nluc reporter destabilization hit call (ZAK) 0 | kinase-Nluc reporter destabilization hit call (ZAP70) 0
0: number of time points (ABL1) | number of time points (AKT1) | number of time points (ALK) | number of time points (ARAF) | number of time points (AURKA) | number of time points (AURKB) | number of time points (AURKC) | number of time points (BLK) | number of time points (BMX) | number of time points (BRAF) | number of time points (BRAF_V600E) | number of time points (BTK)

NC(=O)c1ccc(N(C(N)=O)c2c(F)cccc2F)nc1-c1ccc(F)cc1F (10 µM)
0: number of time points (ABL1) | number of time points (AKT1) | number of time points (ALK) | number of time points (ARAF) | number of time points (AURKA) | number of time points (AURKB) | number of time points (AURKC) | number of time points (BLK) | number of time points (BMX) | number of time points (BRAF) | number of time points (BRAF_V600E) | number of time points (BTK)
inactive: kinase-Nluc reporter destabilization hit call (STK38) 0 | kinase-Nluc reporter destabilization hit call (SYK) 0 | kinase-Nluc reporter destabilization hit call (TEC) 0 | kinase-Nluc reporter destabilization hit call (TYK2) 0 | kinase-Nluc reporter destabilization hit call (ULK3) 0 | kinase-Nluc reporter destabilization hit call (YES1) 0 | kinase-Nluc reporter destabilization hit call (ZAK) 0 | kinase-Nluc reporter destabilization hit call (ZAP70) 0

c1nn(C2CCOCC2)cc1Nc1ncc2nnn(-c3ccc4cn[nH]c4c3)c2n1 (10 µM)
inactive: kinase-Nluc reporter destabilization hit call (STK38) 0 | kinase-Nluc reporter destabilization hit call (SYK) 0 | kinase-Nluc reporter destabilization hit call (TEC) 0 | kinase-Nluc reporter destabilization hit call (TYK2) 0 | kinase-Nluc reporter destabilization hit call (ULK3) 0 | kinase-Nluc reporter destabilization hit call (YES1) 0 | kinase-Nluc reporter destabilization hit call (ZAK) 0 | kinase-Nluc reporter destabilization hit call (ZAP70) 0
0: number of time points (ABL1) | number of time points (AKT1) | number of time points (ALK) | number of time points (ARAF) | number of time points (AURKA) | number of time points (AURKB) | number of time points (AURKC) | number of time points (BLK) | number of time points (BMX) | number of time points (BRAF) | number of time points (BRAF_V600E) | number of time points (BTK)

CCc1c[nH]c2ncnc(N3CC[C@](N)(CNC(=O)c4ccc(F)cc4F)C3)c12 (10 µM)
inactive: kinase-Nluc reporter destabilization hit call (STK38) 0 | kinase-Nluc reporter destabilization hit call (SYK) 0 | kinase-Nluc reporter destabilization hit call (TEC) 0 | kinase-Nluc reporter destabilization hit call (TYK2) 0 | kinase-Nluc reporter destabilization hit call (ULK3) 0 | kinase-Nluc reporter destabilization hit call (YES1) 0 | kinase-Nluc reporter destabilization hit call (ZAK) 0 | kinase-Nluc reporter destabilization hit call (ZAP70) 0
0: number of time points (ABL1) | number of time points (AKT1) | number of time points (ALK) | number of time points (ARAF) | number of time points (AURKA) | number of time points (AURKB) | number of time points (AURKC) | number of time points (BLK) | number of time points (BMX) | number of time points (BRAF) | number of time points (BRAF_V600E) | number of time points (BTK)

c1nc2c(NC3CCCCC3)nc(Nc3ccc(N4CCOCC4)cc3)nc2[nH]1 [Reversine] (10 µM)
0: number of time points (AKT1) | number of time points (ARAF) | number of time points (AURKA) | number of time points (AURKB) | number of time points (AURKC) | number of time points (BLK) | number of time points (BMX) | number of time points (BRAF) | number of time points (BTK)
4: number of time points (BRAF_V600E)
inactive: kinase-Nluc reporter destabilization hit call (STK38) 0 | kinase-Nluc reporter destabilization hit call (SYK) 0 | kinase-Nluc reporter destabilization hit call (TEC) 0 | kinase-Nluc reporter destabilization hit call (TYK2) 0 | kinase-Nluc reporter destabilization hit call (ULK3) 0 | kinase-Nluc reporter destabilization hit call (YES1) 0 | kinase-Nluc reporter destabilization hit call (ZAK) 0 | kinase-Nluc reporter destabilization hit call (ZAP70) 0
1: number of time points (ABL1) | number of time points (ALK)

CC(C)(C)Cc1[nH]nc2c1[C@@](C)(c1ccccc1)C1=C(CC(C)(C)CC1=O)N2 (10 µM)
0: number of time points (ABL1) | number of time points (AKT1) | number of time points (ALK) | number of time points (ARAF) | number of time points (AURKA) | number of time points (AURKB) | number of time points (AURKC) | number of time points (BLK) | number of time points (BMX) | number of time points (BRAF) | number of time points (BRAF_V600E) | number of time points (BTK)
inactive: kinase-Nluc reporter destabilization hit call (STK38) 0 | kinase-Nluc reporter destabilization hit call (SYK) 0 | kinase-Nluc reporter destabilization hit call (TEC) 0 | kinase-Nluc reporter destabilization hit call (TYK2) 0 | kinase-Nluc reporter destabilization hit call (ULK3) 0 | kinase-Nluc reporter destabilization hit call (YES1) 0 | kinase-Nluc reporter destabilization hit call (ZAK) 0 | kinase-Nluc reporter destabilization hit call (ZAP70) 0

C[C@H]1O[C@@H](O[C@H]2CC[C@@]3(C)[C@@H](CC[C@]4(C)[C@@H]3C=C[C@]35OC[C@@]6(CCC(C)(C)C[C@H]63)[C@H](O)C[C@]54C)[C@]2(C)CO)[C@H](O)[C@@H](O[C@@H]2O[C@H](CO)[C@@H](O)[C@H](O)[C@H]2O)[C@H]1O [Saikosaponin D] (2.5 µM)
0: number of time points (ABL1) | number of time points (AKT1) | number of time points (ALK) | number of time points (ARAF) | number of time points (AURKA) | number of time points (AURKB) | number of time points (AURKC) | number of time points (BLK) | number of time points (BMX) | number of time points (BRAF) | number of time points (BRAF_V600E) | number of time points (BTK)
inactive: kinase-Nluc reporter destabilization hit call (STK38) 0 | kinase-Nluc reporter destabilization hit call (SYK) 0 | kinase-Nluc reporter destabilization hit call (TEC) 0 | kinase-Nluc reporter destabilization hit call (TYK2) 0 | kinase-Nluc reporter destabilization hit call (ULK3) 0 | kinase-Nluc reporter destabilization hit call (YES1) 0 | kinase-Nluc reporter destabilization hit call (ZAK) 0 | kinase-Nluc reporter destabilization hit call (ZAP70) 0
